In the supplement of paper PMC11348887:
Counter-ions that a name gives are not always drawn. This is one part of the list. Most values lie at the level of the controls, where differences are scatter.

Columns and labels:
Conditions in all cases: 5 µM; treatment: days 7-14 after plating, readout day 21
[1] = tested on: hPSC-derived cortical neurons (WA09); assay: nucleus area z-score vs screen plate; higher = larger nuclei (more mature)
[2] = tested on: hPSC-derived cortical neurons (WA09); assay: total neurite length per nucleus (MAP2) z-score; higher = more neurite growth
[3] = tested on: hPSC-derived cortical neurons (WA09); assay: nucleus roundness z-score vs screen plate; higher = rounder nuclei (more mature)
[4] = tested on: hPSC-derived cortical neurons (WA09); assay: KCl-induced FOS+/EGR-1+ double-positive nuclei fraction z-score (KCl minus unstimulated); higher = stronger activity-induced IEG response

SMILES	nucleus area z-score [1]	total neurite length per nucleus (z-score) [2]	nucleus roundness z-score [3]	KCl-induced FOS+/EGR-1+ double-positive nuclei fraction z-score [4]
CC(C)[C@H]1C(=O)N[C@@H](CCCNC(=N)N)C(=O)NCC(=O)N[C@@H](CC(=O)O)C(=O)N[C@H](Cc2ccccc2)C(=O)N1C [Cilengitide]	1.26	0.0356	1.01	-0.333
CC(=O)Nc1cccc2c1c(Sc1ccc(Cl)cc1)c(C)n2CC(=O)O	-0.326	0.256	-0.457	-1.28
CNS(=O)(=O)CCc1ccc2[nH]cc(C3CCN(C)CC3)c2c1 [Naratriptan]	1.32	-0.858	-1.23	-0.891
CCCOc1ccc(C(=O)OCCN(CC)CC)cc1N [Proparacaine HCl]	0.909	0.471	0.454	0.541
CCn1cc(C(=O)O)c(=O)c2c(N)c(F)c(NC3CCCCC3)cc21	-0.999	-2.38	-1.57	-0.543
COc1ccc2c(c1)c(CC(=O)O)c(C)n2C(=O)c1ccc(Cl)cc1 [Indomethacin]	0.296	1.22	1.35	1.13
CCC1=C(C)CN(C(=O)NCCc2ccc(S(=O)(=O)NC(=O)N[C@H]3CC[C@H](C)CC3)cc2)C1=O [Glimepiride]	0.347	0.598	0.538	-0.0534
CC(C)/N=c1\cc2n(-c3ccc(Cl)cc3)c3ccccc3nc-2cc1Nc1ccc(Cl)cc1 [Clofazimine]	-0.455	-0.417	-0.26	-0.592
Cc1c(C(N)=O)cc([N+](=O)[O-])cc1[N+](=O)[O-] [Dinitolmide]	1.14	-0.118	-1.24	-0.646
CC(C)NCC(O)COc1ccc(CCOCC2CC2)cc1 (configuration not stated) [Betaxolol HCl]	0.0484	0.802	0.169	2.16
CCCCCCCCOc1ccccc1C(=O)Nc1ccc(C(=O)OCC[N+](C)(CC)CC)cc1 [Otilonium Bromide]	-3.38	-0.739	-5.58	-1.04
CCCC(=O)[O-].[Na+] [Sodium butyrate]	0.17	0.568	-0.0265	0.61
CNC[C@@H](O)c1ccc(O)c(O)c1 [L-Adrenaline]	0.865	-0.107	0.705	0.13
N=C(N)NC(=O)c1nc(Cl)c(N)nc1N [Amiloride HCl]	-0.628	0.212	-0.194	-0.395
COc1ncnc(NS(=O)(=O)c2ccc(N)cc2)c1OC [Sulfadoxine]	-0.905	0.757	-0.115	0.593
CCN1CCN(c2cc3c(cc2F)c(=O)c(C(=O)O)cn3C2CC2)CC1 [Enrofloxacin]	-0.975	0.148	-0.839	0.691
O=C1CN(/N=C/c2ccc([N+](=O)[O-])o2)C(=O)N1 [Nitrofurantoin]	1.14	-0.285	-1.08	1.36
COC(=O)N/N=C/c1c[n+]([O-])c2ccccc2[n+]1[O-] [Carbadox]	2.23	0.35	-0.187	1.61
CNc1cc(-c2cccc(Cl)c2Cl)nc(N)n1	-0.682	0.482	0.198	-0.547
CC(C)(C)C(=O)Oc1ccc(S(=O)(=O)Nc2ccccc2C(=O)NCC(=O)O)cc1 [Sivelestat sodium tetrahydrate]	0.115	-0.191	0.14	0.919
C[C@]12CCC3=C4CCC(=O)C=C4CC[C@H]3[C@@H]1CC[C@@]2(O)CC#N [Dienogest]	2.32	0.331	0.0639	0.268
O=C(O[C@@H]1Cc2c(O)cc(O)cc2O[C@@H]1c1cc(O)c(O)c(O)c1)c1cc(O)c(O)c(O)c1 [(-)-Epigallocatechin Gallate]	1.26	-1.03	0.574	0.879
C[C@H](NC(=O)/C(C#N)=C/c1cccc(Br)n1)c1ccccc1	-0.0171	0.012	-1.02	0.259
Cc1nc(Nc2ncc(C(=O)Nc3c(C)cccc3Cl)s2)cc(N2CCN(CCO)CC2)n1 [Dasatinib Monohydrate]	-4.95	-3.99	-0.974	-0.563
CCC1(c2ccccc2)C(=O)NCNC1=O [Primidone]	-0.537	0.867	0.219	0.57
Nc1nc(N)c2nc(-c3ccccc3)c(N)nc2n1 [Triamterene]	1.04	-0.411	-0.101	-0.251
CCOC(=O)[C@H](CCc1ccccc1)N[C@@H](C)C(=O)N1Cc2cc(OC)c(OC)cc2C[C@H]1C(=O)O [Moexipril HCl]	-0.0143	-0.485	0.377	0.642
CN1CCN(Cc2ccc(NC(=O)Nc3ccc(Oc4ccnc(N)n4)cc3)cc2C(F)(F)F)CC1	-16.5	-6.68	-13.9	1.1

A run of entries from further up, for reference:
SMILES	nucleus area z-score [1]	total neurite length per nucleus (z-score) [2]	nucleus roundness z-score [3]	KCl-induced FOS+/EGR-1+ double-positive nuclei fraction z-score [4]
C[C@H](NC(=O)/C(C#N)=C/c1cccc(Br)n1)c1ccccc1	-0.0171	0.012	-1.02	0.259
Cc1nc(Nc2ncc(C(=O)Nc3c(C)cccc3Cl)s2)cc(N2CCN(CCO)CC2)n1 [Dasatinib Monohydrate]	-4.95	-3.99	-0.974	-0.563
